These are yes or no findings as the source states them, for the method shown. For some assays here: Binding seen in cells or lysates may run through a third protein. Some results given as binding are weak or reduced against the parent protein; the word gives no strength.
Assays:
[1] = biological target: EE-EIC (epitope tagged carboxy terminal domain of HPV16 E1) (human papillomavirus type 16) (UniProt P03114); experiment: in vitro E1-E2 competition binding assay with EE-EIC, 10-40 µM peptide, FIG. 14
[2] = biological target: EE-EIC (epitope tagged carboxy terminal domain of HPV16 E1) (human papillomavirus type 16) (UniProt P03114); experiment: inhibition of co-immunoprecipitation of E2 with the tagged E1 carboxyl terminal domain

Chains of the proteins cited; added tags and fusions are not shown. Residues count along the entry.
UniProt P03114, residues 424-649: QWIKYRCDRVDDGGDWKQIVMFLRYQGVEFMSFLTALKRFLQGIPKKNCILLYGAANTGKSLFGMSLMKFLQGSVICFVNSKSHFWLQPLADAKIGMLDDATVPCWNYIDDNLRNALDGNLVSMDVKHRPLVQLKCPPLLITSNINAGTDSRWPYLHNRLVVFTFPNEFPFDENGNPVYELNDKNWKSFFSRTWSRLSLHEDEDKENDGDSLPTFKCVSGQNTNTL

B1: E2N-WP15 (peptide of HPV16 E2 residues 33-47) (peptide)
peptide: WKHMRLECAIYYKAR
notes: also called 15-mer; wild-type peptide
Which binding [1] does the source give for B1 here?
Its binding is “binds”.

What about the binding [2] of the same binder?
Its binding is “binds”.

From patent publication US6673354B2, “Compositions and methods for treating papillomavirus-infected cells” (priority 1998, dated 2004)
